In patent publication US20150328214A1 one finds binding data, which are given here for one substance.

Chains of the proteins cited; added tags and fusions are not shown. Residues count along the entry.
UniProt Q12834: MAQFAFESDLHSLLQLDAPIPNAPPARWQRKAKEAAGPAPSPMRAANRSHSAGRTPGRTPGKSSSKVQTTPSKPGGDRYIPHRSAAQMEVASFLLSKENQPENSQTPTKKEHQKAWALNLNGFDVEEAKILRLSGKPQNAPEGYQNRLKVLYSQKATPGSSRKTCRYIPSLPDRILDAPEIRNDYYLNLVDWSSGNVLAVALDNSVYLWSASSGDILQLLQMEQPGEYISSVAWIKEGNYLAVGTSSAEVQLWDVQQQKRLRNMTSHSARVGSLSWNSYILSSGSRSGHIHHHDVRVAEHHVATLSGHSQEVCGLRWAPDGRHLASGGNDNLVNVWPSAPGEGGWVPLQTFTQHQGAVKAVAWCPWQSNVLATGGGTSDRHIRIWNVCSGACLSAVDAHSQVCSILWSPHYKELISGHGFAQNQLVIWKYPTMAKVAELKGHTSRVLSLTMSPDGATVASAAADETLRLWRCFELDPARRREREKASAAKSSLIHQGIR
UniProt P14635, residues 1-88: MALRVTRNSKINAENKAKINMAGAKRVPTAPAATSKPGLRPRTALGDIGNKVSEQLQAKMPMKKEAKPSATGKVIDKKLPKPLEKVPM

These are yes or no findings as the source states them, for the method shown. Some entries that bind do so weakly or less than the wild type.

The assay addresses human Cdc20 (human) (UniProt Q12834). Description: competition with binding of in vitro-translated human Cdc20 to apcin-A (small molecule) resin; western blot.

In the case of “HA-tagged human cyclin B1 N-terminal fragment (residues 1-88) (from UniProt P14635 1-88)”, the binding entry was “binds”.
